Reference: doi:10.1101/2022.11.21.517319
No constants are given. Whether binding was seen depends on the method and setting. In cells and extracts the contact can be indirect. Some entries that bind do so weakly or less than the wild type. Where a sequence is shown, tags or fusion partners need not be part of it.

T1: FLAG-tagged TTG1 (Arabidopsis) (UniProt Q9XGN1)
T1 sequence: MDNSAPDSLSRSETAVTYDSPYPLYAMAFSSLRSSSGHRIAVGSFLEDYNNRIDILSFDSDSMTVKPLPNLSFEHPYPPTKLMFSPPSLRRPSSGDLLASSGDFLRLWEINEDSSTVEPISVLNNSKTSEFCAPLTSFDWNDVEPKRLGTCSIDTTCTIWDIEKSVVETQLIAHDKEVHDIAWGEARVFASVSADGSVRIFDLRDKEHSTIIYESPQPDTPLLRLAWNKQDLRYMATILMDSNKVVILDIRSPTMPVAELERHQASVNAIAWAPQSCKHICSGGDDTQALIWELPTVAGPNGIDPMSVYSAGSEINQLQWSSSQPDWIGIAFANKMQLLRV

T2: FLAG-tagged MYB75 (Arabidopsis) (UniProt Q9FE25)
T2 sequence: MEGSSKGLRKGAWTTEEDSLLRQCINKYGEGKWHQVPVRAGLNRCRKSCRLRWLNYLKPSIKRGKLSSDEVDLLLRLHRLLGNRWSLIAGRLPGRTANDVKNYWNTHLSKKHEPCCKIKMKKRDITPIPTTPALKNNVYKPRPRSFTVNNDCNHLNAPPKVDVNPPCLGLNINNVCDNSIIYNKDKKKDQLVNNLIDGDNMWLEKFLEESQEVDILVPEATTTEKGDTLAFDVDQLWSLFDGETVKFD

T3: FLAG-tagged bHLH2 (Arabidopsis) (UniProt Q9CAD0)
T3 sequence: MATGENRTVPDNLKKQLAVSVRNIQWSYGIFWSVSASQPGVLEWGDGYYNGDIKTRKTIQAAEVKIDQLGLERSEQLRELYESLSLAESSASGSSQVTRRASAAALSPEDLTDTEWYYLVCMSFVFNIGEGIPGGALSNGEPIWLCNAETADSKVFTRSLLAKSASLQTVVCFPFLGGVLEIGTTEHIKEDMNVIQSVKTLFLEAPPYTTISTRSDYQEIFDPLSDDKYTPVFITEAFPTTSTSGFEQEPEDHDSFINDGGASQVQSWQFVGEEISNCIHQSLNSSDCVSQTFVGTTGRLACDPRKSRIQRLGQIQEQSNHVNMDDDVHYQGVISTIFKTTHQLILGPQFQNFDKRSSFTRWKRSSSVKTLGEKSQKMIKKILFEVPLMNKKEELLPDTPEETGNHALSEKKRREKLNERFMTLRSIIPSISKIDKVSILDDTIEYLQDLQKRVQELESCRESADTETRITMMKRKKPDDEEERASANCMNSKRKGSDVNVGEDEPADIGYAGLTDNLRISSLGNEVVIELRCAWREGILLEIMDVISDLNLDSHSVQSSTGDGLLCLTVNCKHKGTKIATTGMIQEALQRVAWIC


Key:
Assay in all cases: co-IP
[1] = biological target: T1, FLAG-tagged TTG1 (Arabidopsis)
[2] = biological target: T2, FLAG-tagged MYB75 (Arabidopsis)
[3] = biological target: T3, FLAG-tagged bHLH2 (Arabidopsis)

Row | Binder | binding [1] | binding [2] | binding [3]
1 | HA-tagged bHLH2 (protein, UniProt Q9CAD0 1-596) MATGENRTVPDNLKKQLAVSVRNIQWSYGIFWSVSASQPGVLEWGDGYYNGDIKTRKTIQAAEVKIDQLGLERSEQLRELYESLSLAESSASGSSQVTRRASAAALSPEDLTDTEWYYLVCMSFVFNIGEGIPGGALSNGEPIWLCNAETADSKVFTRSLLAKSASLQTVVCFPFLGGVLEIGTTEHIKEDMNVIQSVKTLFLEAPPYTTISTRSDYQEIFDPLSDDKYTPVFITEAFPTTSTSGFEQEPEDHDSFINDGGASQVQSWQFVGEEISNCIHQSLNSSDCVSQTFVGTTGRLACDPRKSRIQRLGQIQEQSNHVNMDDDVHYQGVISTIFKTTHQLILGPQFQNFDKRSSFTRWKRSSSVKTLGEKSQKMIKKILFEVPLMNKKEELLPDTPEETGNHALSEKKRREKLNERFMTLRSIIPSISKIDKVSILDDTIEYLQDLQKRVQELESCRESADTETRITMMKRKKPDDEEERASANCMNSKRKGSDVNVGEDEPADIGYAGLTDNLRISSLGNEVVIELRCAWREGILLEIMDVISDLNLDSHSVQSSTGDGLLCLTVNCKHKGTKIATTGMIQEALQRVAWIC | binds | binds | 
2 | HA-tagged TTG1 (protein, UniProt Q9XGN1 1-341) MDNSAPDSLSRSETAVTYDSPYPLYAMAFSSLRSSSGHRIAVGSFLEDYNNRIDILSFDSDSMTVKPLPNLSFEHPYPPTKLMFSPPSLRRPSSGDLLASSGDFLRLWEINEDSSTVEPISVLNNSKTSEFCAPLTSFDWNDVEPKRLGTCSIDTTCTIWDIEKSVVETQLIAHDKEVHDIAWGEARVFASVSADGSVRIFDLRDKEHSTIIYESPQPDTPLLRLAWNKQDLRYMATILMDSNKVVILDIRSPTMPVAELERHQASVNAIAWAPQSCKHICSGGDDTQALIWELPTVAGPNGIDPMSVYSAGSEINQLQWSSSQPDWIGIAFANKMQLLRV |  | binds | binds
3 | HA-tagged MYB75 (protein, UniProt Q9FE25 1-248) MEGSSKGLRKGAWTTEEDSLLRQCINKYGEGKWHQVPVRAGLNRCRKSCRLRWLNYLKPSIKRGKLSSDEVDLLLRLHRLLGNRWSLIAGRLPGRTANDVKNYWNTHLSKKHEPCCKIKMKKRDITPIPTTPALKNNVYKPRPRSFTVNNDCNHLNAPPKVDVNPPCLGLNINNVCDNSIIYNKDKKKDQLVNNLIDGDNMWLEKFLEESQEVDILVPEATTTEKGDTLAFDVDQLWSLFDGETVKFD | binds |  | binds
